Drawing on PMC8560880, this text covers binding for 1 molecule.

Amino acid sequences for entries named in this document (tags omitted).
UniProt P62993: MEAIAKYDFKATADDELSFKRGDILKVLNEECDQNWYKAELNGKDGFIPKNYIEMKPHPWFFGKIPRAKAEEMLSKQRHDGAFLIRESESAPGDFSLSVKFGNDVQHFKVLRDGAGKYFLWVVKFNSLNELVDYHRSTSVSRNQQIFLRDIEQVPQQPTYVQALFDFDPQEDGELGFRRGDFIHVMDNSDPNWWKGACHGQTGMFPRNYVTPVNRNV

One assay has as its target EGFR (UniProt P00533). Put plainly: co-IP; co-immunoprecipitation assays from cells, with EGF stimulation (Supplementary Fig. S4d); bait and cells not given.
Another assay has as its target GRB2 (UniProt P62993). Described as above.

These are yes or no findings as the source states them, for the method shown. In cells and extracts the contact can be indirect.

B1: MOB1 (protein, UniProt Q9H8S9 1-216)
chain: MSFLFSSRSSKTFKPKKNIPEGSHQYELLKHAEATLGSGNLRQAVMLPEGEDLNEWIAVNTVDFFNQINMLYGTITEFCTEASCPVMSAGPRYEYHWADGTNIKKPIKCSAPKYIDYLMTWVQDQLDDETLFPSKIGVPFPKNFMSVAKTILKRLFRVYAHIYHQHFDSVMQLQEEAHLNTSFKHFIFFVQEFNLIDRRELAPLQELIEKLGSKDR
Regarding B1, the binding result in the assay with EGFR and in the assay with GRB2 was “no binding” throughout.
